In the supplement of paper PMC11732987, “Enantioselective OTUD7B fragment discovery through chemoproteomics screening and high-throughput optimisation” (Communications Chemistry, 2025):
Some of the results follow. The data scatter; read single values as rough.

The chains behind the UniProt entries cited, without tags or fusion partners. Where a name states a change or a piece, a line headed by the entry shows the natural chain unless it says otherwise. Residues count along the entry.
UniProt P30405: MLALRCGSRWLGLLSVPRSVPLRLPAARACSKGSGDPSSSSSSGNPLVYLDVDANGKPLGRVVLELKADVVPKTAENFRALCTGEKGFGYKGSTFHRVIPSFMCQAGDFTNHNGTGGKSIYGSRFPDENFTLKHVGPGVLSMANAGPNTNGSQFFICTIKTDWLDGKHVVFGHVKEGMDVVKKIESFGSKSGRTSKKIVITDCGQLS
UniProt O43741: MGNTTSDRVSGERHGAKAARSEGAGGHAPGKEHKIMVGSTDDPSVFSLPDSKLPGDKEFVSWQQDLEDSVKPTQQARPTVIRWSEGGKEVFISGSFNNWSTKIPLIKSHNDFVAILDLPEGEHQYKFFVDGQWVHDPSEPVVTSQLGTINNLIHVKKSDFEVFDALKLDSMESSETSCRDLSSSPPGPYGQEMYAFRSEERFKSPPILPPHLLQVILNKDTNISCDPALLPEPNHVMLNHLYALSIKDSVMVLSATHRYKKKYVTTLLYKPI
UniProt Q5H9R7: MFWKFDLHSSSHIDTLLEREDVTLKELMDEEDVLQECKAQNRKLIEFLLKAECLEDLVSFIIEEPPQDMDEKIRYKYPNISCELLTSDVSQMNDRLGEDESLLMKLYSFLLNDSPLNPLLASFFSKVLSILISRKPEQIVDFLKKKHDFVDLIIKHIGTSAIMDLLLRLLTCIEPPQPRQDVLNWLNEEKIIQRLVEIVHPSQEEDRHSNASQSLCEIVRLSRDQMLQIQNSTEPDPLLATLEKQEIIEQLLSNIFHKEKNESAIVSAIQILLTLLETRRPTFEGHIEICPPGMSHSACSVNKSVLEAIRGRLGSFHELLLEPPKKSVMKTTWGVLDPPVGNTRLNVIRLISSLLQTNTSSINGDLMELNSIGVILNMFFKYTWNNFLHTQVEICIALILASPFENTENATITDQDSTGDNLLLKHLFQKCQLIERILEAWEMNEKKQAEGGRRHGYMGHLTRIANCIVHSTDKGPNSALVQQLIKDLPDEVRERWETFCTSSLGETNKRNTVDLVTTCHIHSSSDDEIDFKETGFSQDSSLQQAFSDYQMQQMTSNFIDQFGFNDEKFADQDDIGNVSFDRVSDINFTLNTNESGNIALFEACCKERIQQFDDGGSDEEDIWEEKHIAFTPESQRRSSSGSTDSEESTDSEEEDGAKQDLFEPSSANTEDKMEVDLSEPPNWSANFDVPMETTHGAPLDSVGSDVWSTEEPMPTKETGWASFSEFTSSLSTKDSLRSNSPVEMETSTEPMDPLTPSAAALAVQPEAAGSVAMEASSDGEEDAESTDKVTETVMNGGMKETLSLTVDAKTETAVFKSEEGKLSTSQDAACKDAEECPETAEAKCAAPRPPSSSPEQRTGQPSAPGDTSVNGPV
UniProt Q6P2P2: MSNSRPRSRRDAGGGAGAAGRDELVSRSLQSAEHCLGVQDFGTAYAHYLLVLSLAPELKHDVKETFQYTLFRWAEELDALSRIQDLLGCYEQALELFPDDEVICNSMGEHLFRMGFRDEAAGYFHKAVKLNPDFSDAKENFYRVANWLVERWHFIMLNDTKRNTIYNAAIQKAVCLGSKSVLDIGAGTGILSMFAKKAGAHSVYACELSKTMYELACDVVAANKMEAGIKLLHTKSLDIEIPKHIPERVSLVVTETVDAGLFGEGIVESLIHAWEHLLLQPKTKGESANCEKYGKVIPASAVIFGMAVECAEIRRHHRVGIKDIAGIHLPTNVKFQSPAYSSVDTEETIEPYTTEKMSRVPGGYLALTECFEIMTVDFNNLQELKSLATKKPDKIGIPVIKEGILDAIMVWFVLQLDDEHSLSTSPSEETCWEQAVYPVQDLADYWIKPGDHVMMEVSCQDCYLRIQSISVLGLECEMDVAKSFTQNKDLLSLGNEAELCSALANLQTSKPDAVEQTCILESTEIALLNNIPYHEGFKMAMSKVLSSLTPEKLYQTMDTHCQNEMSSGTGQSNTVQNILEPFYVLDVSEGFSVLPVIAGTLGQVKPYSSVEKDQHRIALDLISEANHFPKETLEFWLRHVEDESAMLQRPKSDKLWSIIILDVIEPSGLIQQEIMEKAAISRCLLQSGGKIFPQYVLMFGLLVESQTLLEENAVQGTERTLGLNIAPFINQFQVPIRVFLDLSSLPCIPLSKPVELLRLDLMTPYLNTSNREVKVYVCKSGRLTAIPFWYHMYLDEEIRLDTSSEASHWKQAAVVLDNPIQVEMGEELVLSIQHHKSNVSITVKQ
UniProt Q06830, 169-190: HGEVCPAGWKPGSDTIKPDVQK
UniProt P78527, whole entry, looked up: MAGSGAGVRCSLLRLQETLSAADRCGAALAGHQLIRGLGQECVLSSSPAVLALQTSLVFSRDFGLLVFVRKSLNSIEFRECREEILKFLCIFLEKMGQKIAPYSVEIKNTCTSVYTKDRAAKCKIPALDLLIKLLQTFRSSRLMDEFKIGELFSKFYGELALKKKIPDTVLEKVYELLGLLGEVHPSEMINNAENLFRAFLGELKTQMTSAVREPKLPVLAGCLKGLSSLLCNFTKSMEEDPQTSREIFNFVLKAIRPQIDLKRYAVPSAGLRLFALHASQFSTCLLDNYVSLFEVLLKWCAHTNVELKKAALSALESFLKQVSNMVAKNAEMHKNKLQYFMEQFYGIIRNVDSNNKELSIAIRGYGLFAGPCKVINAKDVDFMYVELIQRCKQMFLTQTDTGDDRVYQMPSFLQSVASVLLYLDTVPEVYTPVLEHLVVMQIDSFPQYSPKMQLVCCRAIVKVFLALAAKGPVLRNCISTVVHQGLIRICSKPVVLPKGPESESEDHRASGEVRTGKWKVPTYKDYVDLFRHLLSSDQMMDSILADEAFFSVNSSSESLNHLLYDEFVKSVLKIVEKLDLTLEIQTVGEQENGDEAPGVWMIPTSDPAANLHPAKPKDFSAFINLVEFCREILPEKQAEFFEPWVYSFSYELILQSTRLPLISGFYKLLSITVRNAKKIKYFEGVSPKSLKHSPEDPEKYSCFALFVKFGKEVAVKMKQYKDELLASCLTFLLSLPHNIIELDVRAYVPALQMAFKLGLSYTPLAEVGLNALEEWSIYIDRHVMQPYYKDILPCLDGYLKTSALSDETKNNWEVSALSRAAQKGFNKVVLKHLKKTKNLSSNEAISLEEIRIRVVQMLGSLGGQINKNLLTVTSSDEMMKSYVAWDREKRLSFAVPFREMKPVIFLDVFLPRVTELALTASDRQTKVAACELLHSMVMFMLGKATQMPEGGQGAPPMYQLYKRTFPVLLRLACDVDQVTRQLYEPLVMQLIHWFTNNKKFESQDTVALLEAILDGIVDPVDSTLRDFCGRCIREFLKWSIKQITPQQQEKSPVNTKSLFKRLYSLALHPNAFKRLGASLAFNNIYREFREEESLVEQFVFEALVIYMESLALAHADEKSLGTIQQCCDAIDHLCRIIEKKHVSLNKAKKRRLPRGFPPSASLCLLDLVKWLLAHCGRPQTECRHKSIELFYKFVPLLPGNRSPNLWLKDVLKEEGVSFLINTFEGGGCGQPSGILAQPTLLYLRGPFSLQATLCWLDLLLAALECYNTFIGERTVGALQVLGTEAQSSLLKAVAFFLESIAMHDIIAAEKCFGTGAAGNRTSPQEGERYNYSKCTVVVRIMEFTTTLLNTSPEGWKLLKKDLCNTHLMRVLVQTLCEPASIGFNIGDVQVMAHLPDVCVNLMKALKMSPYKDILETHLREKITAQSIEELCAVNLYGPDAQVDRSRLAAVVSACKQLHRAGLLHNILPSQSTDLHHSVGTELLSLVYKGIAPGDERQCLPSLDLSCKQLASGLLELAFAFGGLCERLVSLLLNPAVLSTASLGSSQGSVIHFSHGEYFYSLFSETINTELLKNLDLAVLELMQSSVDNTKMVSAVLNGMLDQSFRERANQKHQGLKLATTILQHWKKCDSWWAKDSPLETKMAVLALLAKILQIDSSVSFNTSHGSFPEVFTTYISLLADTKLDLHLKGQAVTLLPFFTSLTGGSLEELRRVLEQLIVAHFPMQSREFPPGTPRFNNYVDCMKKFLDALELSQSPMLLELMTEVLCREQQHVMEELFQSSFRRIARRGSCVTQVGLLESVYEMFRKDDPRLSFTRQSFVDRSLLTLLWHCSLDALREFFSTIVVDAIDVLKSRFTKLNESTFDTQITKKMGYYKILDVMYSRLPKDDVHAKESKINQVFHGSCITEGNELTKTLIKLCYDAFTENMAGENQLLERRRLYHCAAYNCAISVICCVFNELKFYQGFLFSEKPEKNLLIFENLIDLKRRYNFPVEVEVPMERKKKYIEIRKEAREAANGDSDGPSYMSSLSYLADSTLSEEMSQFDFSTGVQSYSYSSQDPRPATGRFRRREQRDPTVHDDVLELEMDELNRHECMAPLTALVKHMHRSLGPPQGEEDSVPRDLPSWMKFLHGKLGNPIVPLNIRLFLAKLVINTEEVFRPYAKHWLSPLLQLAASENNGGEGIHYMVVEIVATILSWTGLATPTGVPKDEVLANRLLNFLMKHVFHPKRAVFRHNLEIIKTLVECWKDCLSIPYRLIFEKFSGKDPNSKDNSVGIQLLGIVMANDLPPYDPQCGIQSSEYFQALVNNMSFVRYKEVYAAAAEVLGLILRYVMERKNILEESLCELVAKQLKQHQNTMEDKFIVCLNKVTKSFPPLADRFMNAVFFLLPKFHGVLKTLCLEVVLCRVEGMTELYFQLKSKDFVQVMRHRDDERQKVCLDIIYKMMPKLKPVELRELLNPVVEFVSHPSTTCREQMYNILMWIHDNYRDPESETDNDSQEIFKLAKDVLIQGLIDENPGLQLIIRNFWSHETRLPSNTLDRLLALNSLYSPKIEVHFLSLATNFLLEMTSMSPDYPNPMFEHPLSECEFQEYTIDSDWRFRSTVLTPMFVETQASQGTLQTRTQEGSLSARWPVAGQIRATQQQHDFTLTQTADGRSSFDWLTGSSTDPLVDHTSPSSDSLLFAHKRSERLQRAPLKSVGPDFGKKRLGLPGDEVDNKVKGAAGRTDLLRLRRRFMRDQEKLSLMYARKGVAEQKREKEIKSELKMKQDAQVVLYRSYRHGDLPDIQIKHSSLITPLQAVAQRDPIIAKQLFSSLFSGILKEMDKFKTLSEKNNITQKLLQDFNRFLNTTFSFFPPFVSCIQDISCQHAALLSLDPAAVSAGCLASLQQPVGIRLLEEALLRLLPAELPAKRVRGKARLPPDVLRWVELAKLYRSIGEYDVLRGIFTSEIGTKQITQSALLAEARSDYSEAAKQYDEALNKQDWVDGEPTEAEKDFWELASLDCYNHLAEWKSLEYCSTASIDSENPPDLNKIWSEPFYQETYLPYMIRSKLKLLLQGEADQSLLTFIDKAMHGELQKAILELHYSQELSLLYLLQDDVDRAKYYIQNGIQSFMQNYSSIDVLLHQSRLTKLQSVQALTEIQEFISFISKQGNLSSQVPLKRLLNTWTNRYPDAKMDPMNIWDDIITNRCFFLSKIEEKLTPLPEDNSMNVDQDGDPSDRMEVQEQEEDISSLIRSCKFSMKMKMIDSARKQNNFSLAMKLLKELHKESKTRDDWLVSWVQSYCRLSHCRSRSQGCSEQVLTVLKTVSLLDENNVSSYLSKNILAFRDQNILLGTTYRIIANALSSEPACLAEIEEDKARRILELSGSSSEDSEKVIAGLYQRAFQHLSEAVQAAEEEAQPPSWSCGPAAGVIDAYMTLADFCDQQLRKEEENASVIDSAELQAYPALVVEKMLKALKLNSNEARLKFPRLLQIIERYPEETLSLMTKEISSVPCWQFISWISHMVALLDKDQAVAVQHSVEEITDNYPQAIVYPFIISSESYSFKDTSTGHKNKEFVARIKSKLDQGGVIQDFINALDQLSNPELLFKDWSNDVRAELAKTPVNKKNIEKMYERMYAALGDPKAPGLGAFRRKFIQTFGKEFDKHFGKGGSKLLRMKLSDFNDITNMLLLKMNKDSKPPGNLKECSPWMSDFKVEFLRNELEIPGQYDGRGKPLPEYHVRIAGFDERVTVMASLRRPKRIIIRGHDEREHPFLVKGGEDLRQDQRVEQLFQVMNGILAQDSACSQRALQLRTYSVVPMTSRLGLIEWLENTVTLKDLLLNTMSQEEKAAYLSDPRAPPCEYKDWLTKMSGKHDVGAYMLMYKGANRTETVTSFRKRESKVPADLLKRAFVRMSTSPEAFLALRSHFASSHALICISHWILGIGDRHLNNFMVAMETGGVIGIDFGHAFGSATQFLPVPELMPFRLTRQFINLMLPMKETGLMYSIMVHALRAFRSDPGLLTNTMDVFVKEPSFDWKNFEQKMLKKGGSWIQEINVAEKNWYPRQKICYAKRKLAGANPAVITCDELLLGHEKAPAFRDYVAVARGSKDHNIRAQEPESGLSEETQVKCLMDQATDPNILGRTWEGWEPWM
UniProt O43663, 75-101: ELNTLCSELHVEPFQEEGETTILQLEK
UniProt O60831: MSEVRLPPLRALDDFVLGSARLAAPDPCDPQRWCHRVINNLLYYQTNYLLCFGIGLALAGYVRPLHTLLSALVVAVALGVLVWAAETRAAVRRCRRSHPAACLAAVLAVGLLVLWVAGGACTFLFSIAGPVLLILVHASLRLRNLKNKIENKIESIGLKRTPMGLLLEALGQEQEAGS
UniProt Q04759, 536-555: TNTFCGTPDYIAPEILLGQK
UniProt A5A3E0, 916-938: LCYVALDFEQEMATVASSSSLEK

What was measured:
[1] = compound: ClCC(=O)N[C@@H]1CCCc2ccccc12; assay: log2 mean competition ratio of IA-DTB cysteine labelling (DMSO/compound) (log2 ratio); higher = stronger cysteine engagement by compound; details: treatment time: 4 h, cell line lysate: HEK293T
Experimental: (§1)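 IA-DTB competitive cysteine chemoproteomics in HEK293T RIPA lysate. Lysates were treated with compound 29 or 30 at 50 or 200 µM for 4 h, then IA-DTB (500 µM, 1 h), trypsin-digested, NeutrAvidin-enriched and analysed by diaPASEF. Competition ratio = intensity DMSO / intensity compound (n=4 treated, n=64 DMSO); binding: mean log2 CR ≥ 1 and p ≤ 0.05 plus QC filters. Target is the cysteine site.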

[2] = compound: ClCC(=O)N[C@H]1CCCc2ccccc12; assay: as above; details: treatment time: 4 h, cell line lysate: HEK293T
Experimental: as §1

| Target | log2 mean competition ratio ([1]; 50 µM) | log2 mean competition ratio ([1]; 200 µM) | log2 mean competition ratio ([2]; 50 µM) | log2 mean competition ratio ([2]; 200 µM) |
| --- | --- | --- | --- | --- |
| PPP2R5D C17 (UniProt Q14738) | 0.416 | -0.176 | 0.411 | -0.155 |
| PRMT1 C272 (UniProt Q99873) | 0.0648 | -0.432 | 0.383 | -0.392 |
| POLR2A C13 | 0.46 | 0.671 | 0.199 | 0.494 |
| PRKG1 C158 (UniProt Q13976) | -0.301 | 0.0251 | -0.135 | -0.058 |
| PPP2R1A C390 (UniProt P30153) | -0.265 | 0.488 | -0.438 | 0.28 |
| PPIF C203 (UniProt P30405) | -0.527 | 0.125 | -0.263 | 0.0509 |
| PRPF6 C513 (UniProt O94906) | -0.0735 | 0.0163 | 0.268 | 0.254 |
| PRMT3 C2 (UniProt O60678) | 0.0805 | -0.178 | 0.143 | 0.0212 |
| POLRMT C1192 (UniProt O00411) | -0.0477 | 0.0256 | 0.123 | -0.0446 |
| PPM1E C4 (UniProt Q8WY54) | 0.143 | -0.108 | 0.277 | 0.108 |
| PRKAB2 C178 (UniProt O43741) | -0.00527 | 0.216 | 0.00198 | 0.279 |
| PRDX6 C91 (UniProt P30041) | 0.932 | 0.31 | 1.12 | 0.336 |
| PPP6R2 C870 (UniProt O75170) | -0.19 | 0.202 | -0.122 | 0.298 |
| PROSER2 C21 (UniProt Q86WR7) | -0.0612 | 0.323 | 0.0414 | 0.244 |
| PPRC1 C1084 (UniProt Q5VV67) | -0.161 | -0.565 | -0.397 | -0.443 |
| PRMT7 C136 (UniProt Q9NVM4) | -0.164 | -0.278 | -0.219 | 0.0285 |
| PPP6R3 C172 (UniProt Q5H9R7) | -0.165 | -0.448 | -0.118 | -0.291 |
| PRMT9 C683 (UniProt Q6P2P2) | 0.038 | 0.159 | -0.0722 | 0.112 |
| PPIP5K2 C842 | -0.169 | 0.086 | -0.412 | -0.13 |
| PRDX1 C173 (UniProt Q06830) | 0.0595 | -0.376 | 0.153 | -0.242 |
| PRKDC C81 (UniProt P78527) | -0.0803 | -0.154 | -0.0916 | -0.228 |
| PRKAR2B C373 (UniProt P31323) | 0.286 | 0.495 | 0.468 | 0.0254 |
| POM121 C613 (UniProt Q96HA1) | -0.271 | -0.156 | 0.48 | -0.152 |

Full records from above. Order of values: log2 mean competition ratio ([1]; 50 µM)	log2 mean competition ratio ([1]; 200 µM)	log2 mean competition ratio ([2]; 50 µM)	log2 mean competition ratio ([2]; 200 µM)
POLR2A C13 is listed with 0.46	0.671	0.199	0.494
PROSER2 C21 (UniProt Q86WR7) is listed with -0.0612	0.323	0.0414	0.244
PRDX1 C173 (UniProt Q06830) is listed with 0.0595	-0.376	0.153	-0.242

The results go on.

| Target | log2 mean competition ratio ([1]; 50 µM) | log2 mean competition ratio ([1]; 200 µM) | log2 mean competition ratio ([2]; 50 µM) | log2 mean competition ratio ([2]; 200 µM) |
| --- | --- | --- | --- | --- |
| PRC1 C531 (UniProt O43663) | 0.295 | 0.195 | 0.364 | 0.197 |
| PRKDC C1919 (UniProt P78527) | 0.221 | 0.49 | 0.331 | 0.344 |
| PRIM2 C111 (UniProt P49643) | 0.554 | 0.107 | -0.0104 | -0.149 |
| POLR3D C316 (UniProt P05423) | -0.0259 | 0.183 | 0.384 | 0.141 |
| PRMT9 C175 (UniProt Q6P2P2) | -0.0966 | 0.118 | 0.0754 | 0.129 |
| PPP2R5E C121 (UniProt Q16537) | 0.0465 | 0.112 | -0.0949 | 0.0533 |
| PRC1 C236 (UniProt O43663) | -0.0457 | -0.4 | -0.204 | -0.273 |
| PRPF6 C604 (UniProt O94906) | 0.717 | -0.0599 | 0.556 | -0.221 |
| PRC1 C80 (UniProt O43663) | -0.65 | -0.166 | -0.109 | 0.227 |
| PRAF2 C28 (UniProt O60831) | -0.0301 | 0.0594 | 0.0354 | 0.198 |
| PRPS1 C41 | -0.192 | -0.502 | 0.11 | -0.377 |
| PRMT9 C217 (UniProt Q6P2P2) | 0.0325 | 0.0489 | -0.161 | -0.0613 |
| PPP4R1 C174 (UniProt Q8TF05) | 0.066 | -0.217 | 0.132 | 0.0561 |
| PPP1CC;PPP1CA C140;(C140) | -0.211 | -0.112 | -0.201 | -0.0708 |
| PRKDC C1629 (UniProt P78527) | 0.198 | -0.306 | 0.117 | -0.0457 |
| PRKAR2A C374 (UniProt P13861) | 0.275 | -0.138 | -0.0458 | 0.106 |
| PRKCD C280 (UniProt Q05655) | -0.165 | -0.0557 | -0.3 | -0.154 |
| PRKCQ C540 (UniProt Q04759) | -0.416 | -0.412 | -0.43 | -0.000368 |
| PRKAA2 C174 (UniProt P54646) | 0.254 | -0.127 | 0.722 | 0.0479 |
| PPP2CB C20 | -0.206 | 0.196 | -0.101 | 0.408 |
| PPA2 C17 (UniProt Q9H2U2) | -0.00597 | 0.151 | -0.161 | -0.0838 |
| POTEF C917 (UniProt A5A3E0) | 0.198 | 0.0538 | 0.715 | -0.0975 |
| PPP2CA C133 | -0.418 | 0.144 | 0.534 | 0.213 |
